Data: PubChem BioAssay AID190 (DTP/NCI, 2004)
The list is a part of this screen's results and no random one: it is rich in T/C values a quarter to a half above the control, in often repeated tests (any T/C) and in doses without a T/C. Further doses and runs are listed elsewhere. T/C is the treated group as % of the vehicle group. Some doses have a count of surviving animals in place of a T/C: the source holds a T/C of zero for them, seemingly a mark for toxic or unscored doses. Some doses without a T/C left all or most animals alive at the check, yet need not have been tolerated: the source hardly ever lists a survival T/C far under the control, and the zero likely stands for such cases as well. Counts of survivors are from the toxicity check (mostly the fifth day) where no day follows; animals may have died later. Schedules are NCI's codes, taken here to give the interval after Q, in days (D) or hours (H), and the number of doses after X. Some doses were run more than once; the values are given in rising order. For survival time, the PubChem record calls one and a half times the control and up active, and a quarter to a half above the control has no call in these data; cut-offs in other NCI protocols can differ. Some T/C values are followed by the survivors on the day toxicity was checked, most often the fifth; where none is given, no animal had died by that day.

System: AKR/Lw mice, AKR lymphoma ip, median survival T/C
Test: NCI In Vivo Anticancer Drug Screen. Data for tumor model Lymphoma AKR (Transplanted) (intraperitoneal) in AKR/Lw mice
Conditions: T/C endpoint: median survival time, higher T/C = longer survival
Procedure: The antitumor activity of compounds was measured in mice bearing transplantable tumors. Survival or tumor size were measured and the results are expressed as the measurement made in the treated group (T) divided by the measurement made in the vehicle treated control group (C). The tumor model used in this assay is Lymphoma AKR (Transplanted) (intraperitoneal) in AKR/Lw mice

[1] = dose: 300.0 mg/kg/injection, schedule: Q06HX016 (ip), vehicle: saline
[2] = dose: 450.0 mg/kg/injection, schedule: Q06HX016 (ip), vehicle: saline
[3] = dose: 675.0 mg/kg/injection, schedule: Q06HX016 (ip), vehicle: saline
[4] = dose: 1000.0 mg/kg/injection, schedule: Q06HX016 (ip), vehicle: saline

## Nc1n[nH]c(N)n1
dose: 37.5 mg/kg/injection, schedule: Q06HX008 (ip), vehicle: saline
  survivor count: 3 of 10
dose: 125.0 mg/kg/injection, schedule: Q06HX004 (ip), vehicle: saline
  survivor count: 10 of 10
[1]
  T/C: 87, 100, 103 % of control [9 of 10 alive]
  survivor count: 10 of 10
dose: 450.0 mg/kg/injection, schedule: Q01DX010 (ip), vehicle: saline
  T/C: 145 % of control
[2]
  T/C: 93 and 112 % of control
  survivor count: 10 of 10
dose: 500.0 mg/kg/injection, schedule: Q06HX004 (ip), vehicle: saline
  survivor count: 9 of 10
dose: 600.0 mg/kg/injection, schedule: Q01DX009 (ip), vehicle: saline
  survivor count: 9 of 10
dose: 675.0 mg/kg/injection, schedule: Q06HX008 (ip), vehicle: saline
  T/C: 126 % of control
[3]
  T/C: 93 [8 of 10 alive] and 100 % of control [9 of 10 alive]
  survivor count: 9 of 10
dose: 800.0 mg/kg/injection, schedule: Q04DX003 (ip), vehicle: saline
  T/C: 126 % of control
dose: 1000.0 mg/kg/injection, schedule: Q04DX003 (ip), vehicle: saline
  T/C: 131 % of control
dose: 1000.0 mg/kg/injection, schedule: Q06HX012 (ip), vehicle: saline
  survivor count: 10 of 10
[4]
  T/C: 93 % of control [8 of 10 alive]
  survivor count: 3 of 10 and 9 of 10
dose: 1400.0 mg/kg/injection, schedule: Q04DX003 (ip), vehicle: saline
  T/C: 125 % of control

## CCOC(=O)CCCl
dose: 100.0 mg/kg/injection, schedule: Q01DX001 (ip), vehicle: Klucel (hydroxypropylcellulose) (HPC)
  survivor count: 10 of 10

## CO[C@H](C(=O)[C@@H](O)[C@@H](C)O)[C@@H]1Cc2cc3cc(OC4CC(OC5CC(O)C(O)C(C)O5)C(O)C(C)O4)c(C)c(O)c3c(O)c2C(=O)[C@H]1OC1CC(OC2CC(OC3CC(C)(O)C(O)C(C)O3)C(O)C(C)O2)C(O)C(C)O1 (stereo partly drawn)
dose: 0.25 mg/kg/injection, schedule: Q01DX009 (ip), vehicle: saline
  T/C: 132 % of control
dose: 0.5 mg/kg/injection, schedule: Q01DX009 (ip), vehicle: saline
  T/C: 142 % of control
dose: 0.5 mg/kg/injection, schedule: Q01DX009 (ip), vehicle: water
  T/C: 130 % of control
dose: 1.0 mg/kg/injection, schedule: Q01DX009 (ip), vehicle: saline
  survivor count: 2 of 10
dose: 1.0 mg/kg/injection, schedule: Q01DX009 (ip), vehicle: water
  survivor count: 2 of 10 and 10 of 10
dose: 2.0 mg/kg/injection, schedule: Q01DX009 (ip), vehicle: water
  survivor count: 0 of 10 and 10 of 10

## COc1cc2c(cc1OC)C1CCN3CCCC3N1CC2 (stereo not drawn)
dose: 200.0 mg/kg/injection, schedule: Q01DX001 (ip), vehicle: Klucel (hydroxypropylcellulose) (HPC)
  survivor count: 7 of 10
dose: 400.0 mg/kg/injection, schedule: Q01DX001 (ip), vehicle: Klucel (hydroxypropylcellulose) (HPC)
  survivor count: 0 of 10

## N=Cc1c(O)[nH]c(=O)[nH]c1=O
dose: 400.0 mg/kg/injection, schedule: Q04DX003 (ip), vehicle: Klucel (hydroxypropylcellulose) (HPC)
  survivor count: 10 of 10
